About 5,400 (1.8%) of roughly 300,000 compounds were called active. The inconclusive results got no clear call from the source; some entries with a clear call stand among them for comparison. The call rests on the fitted dose curve; tested in HEK293 cells. Potencies of inconclusive entries are doubtful fits and often do not repeat.
Assay: qHTS for inhibitors of binding or entry into cells for Marburg Virus
Details: Marburg virus pseudotyped entry inhibition, cell reporter; activity change, negative = inhibition: at 37.8 µM (top of the series) unless noted
On the % scale 0 is the no-effect control and ±100 the full control effect; potency means the concentration at half of the fitted maximal effect.

Row | SMILES | Potency | activity change, negative = inhibition
1 | Cc1noc(NS(=O)(=O)c2ccc(NC(=O)CSc3nnc(-c4ccccc4)n3C3CCCCC3)cc2)c1C | inconclusive: 23.1 µM [inhibitor, single point] | –
2 | CN(CC(=O)NCCc1ccc(S(N)(=O)=O)cc1)CC(=O)Nc1ccc(Cl)c(C(F)(F)F)c1 | inconclusive: 35.5 µM [inhibitor, single point] | –
3 | N#C/C(=C\C1=C(N2CCOCC2)C(=C\c2ccccc2)/CC1)C(=O)Nc1ccccc1F | inconclusive: 29.1 µM [inhibitor, single point] | –
4 | COc1ccc(NC(=O)CSc2nc(C)c3c(c2C#N)CCCC3)cc1 | – | inactive: -14.5%
5 | Cc1ccc(N(C(=O)CS(=O)CC(=O)Nc2ccc(F)cc2)C(C(=O)NC2CCCCC2)c2ccco2)cc1 (stereo not drawn) | inconclusive: 5.62 µM [activator, single point] | –
6 | O=C(Cc1cccs1)OCC(=O)c1ccco1 | – | inactive: -5.43%
7 | O=C(c1ccc(Cl)cc1)c1cnc(Nc2ccccc2Cl)s1 | inconclusive: 29.1 µM [inhibitor, single point] | –
8 | CCN1CCN(CCNC(=O)c2ccc3c(c2)N(Cc2ccc(F)cc2)C(=O)/C(=C/c2ccccc2)S3)CC1 | inconclusive: 3.98 µM [inhibitor, full curve, poor fit] | –
9 | CC1(C)NC(=O)N(c2ccc([N+](=O)[O-])c(C(F)(F)F)c2)C1=O | inconclusive: 6.51 µM [activator, single point] | –
10 | CCOC(=O)c1cc(OC(=O)c2ccccc2C)n(-c2ccccc2)n1 | inconclusive: 6.31 µM [inhibitor, single point] | –
11 | CCC1C/C(=C\c2cccnc2)C(=O)/C(=C/c2cccnc2)C1 (stereo not drawn) | active: 5.8 µM | –
12 | O=C(Nc1ccncc1)c1cn(-c2ccccc2)nc1-c1cccs1 | inconclusive: 35.5 µM [inhibitor, partial curve, poor fit] | –
13 | O=C(Nc1ccc(CSc2ccccc2)cc1)c1ccccc1 | – | inactive: -6.27% [at 46.1 µM]
14 | CCOC(=O)N1CCN(S(=O)(=O)c2c(C)cc(C)cc2C)CC1 | inconclusive: 1.26 µM [inhibitor, single point] | –
15 | CCOc1ccccc1NC(=O)NCCc1c[nH]c2ccccc12 | inconclusive: 10 µM [inhibitor, partial curve, poor fit] | –
16 | COc1cccc(CNC(=O)Cn2cc([N+](=O)[O-])cn2)c1 | inconclusive: 1.41 µM [inhibitor, full curve, poor fit] | –
17 | COc1ccc(C(=O)Nc2cccc(C)c2)cc1 | – | inactive: 8.6%
18 | CN(CC(=O)Nc1cccc(F)c1)C(=O)c1ccc(N2CCCCC2)c([N+](=O)[O-])c1 | inconclusive: 35.5 µM [inhibitor, single point] | –
19 | O=C(CSCc1cnn(-c2ccccc2)c1-n1cccc1)NCc1ccccn1 | inconclusive: 5.62 µM [activator, single point] | –
20 | CCN(CC)C(=O)Cn1c(=O)n(-c2ccc(Cl)cc2)c(=O)c2c3c(sc21)CCC3 | – | inactive: 18.9% [at 46.1 µM]
21 | CN(C)C=Nc1nc2ccccc2nc1N1CCCC1 | – | inactive: 1.17% [at 46.1 µM]
22 | COc1ccc(CNC(=O)C2CCCN(c3nc4ccccc4o3)C2)c(OC)c1 (stereo not drawn) | inconclusive: 29.1 µM [inhibitor, single point] | –

Entries of single compounds as entered above. Order of values: Potency | activity change, negative = inhibition
COc1ccc(CNC(=O)C2CCCN(c3nc4ccccc4o3)C2)c(OC)c1 (stereo not drawn) is listed as inconclusive: 29.1 µM [inhibitor, single point] | –
CCN(CC)C(=O)Cn1c(=O)n(-c2ccc(Cl)cc2)c(=O)c2c3c(sc21)CCC3 is listed as – | inactive: 18.9% [at 46.1 µM]

(further entries)

Row | SMILES | Potency | activity change, negative = inhibition
23 | CS(=O)(=O)c1ccc2nc(NC(=O)Nc3ccc(Cl)c(Cl)c3)sc2c1 | – | inactive: -12.3%
24 | O=C1c2[nH]nc(-c3ccccc3O)c2C(c2cccc(OCc3ccccc3)c2)N1CCO (stereo not drawn) | inconclusive: 35.5 µM [inhibitor, single point] | –
25 | CC12CCCCC1=[N+]([O-])CN2O (stereo not drawn) | – | inactive: 0.376%
26 | O=C(CC1C(=O)N(c2ccc(Cl)cc2)C(=S)N1CCc1ccncc1)Nc1ccc(F)cc1 (stereo not drawn) | inconclusive: 10.3 µM [inhibitor, partial curve] | –
27 | CC1=CCC(C(=O)O)C(C(=O)Nc2ccc(-c3nc4ccc(C)cc4s3)cc2)C1 (stereo not drawn) | inconclusive: 0.562 µM [activator, full curve, poor fit] | –
28 | O=S(=O)(Nc1cccc2[nH]ncc12)c1cccs1 | – | inconclusive: 35.4% [activator] [at 46.1 µM]
29 | COc1cc2c(cc1NC(=S)Nc1cccc3ccccc13)oc1ccccc12 | – | inactive: 2%
30 | CCOC(=O)c1c(C)oc2c1C(=O)c1ccccc1C2=O | inconclusive: 16.4 µM [inhibitor, single point] | –
31 | CC(=O)Nc1ccc(N=Cc2ccc(OCc3ccccc3)cc2)cc1 | inconclusive: 0.1 µM [activator, full curve, poor fit] | –
32 | CSc1ccc(C2NC(=O)c3ccccc3N2)cc1 (stereo not drawn) | inconclusive: 6.31 µM [inhibitor, full curve, poor fit] | –
33 | Cc1ccc2c(c1)nnn2C1CCN(CC(=O)Nc2ccc(F)cc2)CC1 | – | inactive: -15.3% [at 46.1 µM]
34 | CCC(C)c1ccc(NC(=O)c2cccs2)cc1 (stereo not drawn) | inconclusive: 11.6 µM [inhibitor, partial curve, poor fit] | –
35 | COc1ccc(/C=C/S(=O)(=O)NCc2ccccc2)cc1OC | – | inactive: -23.4% [at 46.1 µM]
36 | O=C(Nc1cccc(C(F)(F)F)c1)C1CCCN1S(=O)(=O)c1cccc2nsnc12 (stereo not drawn) | inconclusive: 3.55 µM [inhibitor, partial curve, poor fit] | –
37 | CN=c1scc(C)n1/N=C/c1ccc2c(c1)OCO2 | inconclusive: 6.31 µM [inhibitor, full curve, poor fit] | –
38 | CCC(C)NC(=O)C(Sc1ccccc1)c1ccccc1 (stereo not drawn) | inconclusive: 15.8 µM [inhibitor, single point] | –
39 | O=C(Nc1cccc(C(=O)N2CCOCC2)c1)c1ccccc1 | – | inactive: -1%
40 | COCCn1c(C)cc(C(=O)COC(=O)c2cncc(Br)c2)c1C | inconclusive: 29.1 µM [activator, single point] | –
41 | COc1cc2c(cc1OC)[C@@H]1O[C@](c3ccsc3)(C2)OC2=C1C(=O)OC1(CCCCC1)C2 | inconclusive: 5.96 µM [inhibitor, single point] | –
42 | O=C(COC(=O)c1ccc(Cl)cc1O)Nc1cccnc1Cl | inconclusive: 15.8 µM [activator, single point] | –
43 | Cc1cc(Nc2ccc(Cl)cc2)nc(NCc2ccccc2)n1 | inconclusive: 3.55 µM [inhibitor, partial curve, poor fit] | –

Looked up by compound from above, 2 records:
Row | SMILES | Potency | activity change, negative = inhibition
41 | COc1cc2c(cc1OC)[C@@H]1O[C@](c3ccsc3)(C2)OC2=C1C(=O)OC1(CCCCC1)C2 | inconclusive: 5.96 µM [inhibitor, single point] | –
20 | CCN(CC)C(=O)Cn1c(=O)n(-c2ccc(Cl)cc2)c(=O)c2c3c(sc21)CCC3 | – | inactive: 18.9% [at 46.1 µM]

From PubChem BioAssay AID540276 (National Center for Advancing Translational Sciences (NCATS), 2011)
